Source: publication PMC5495335
These are yes or no findings as the source states them, for the method shown. Binding seen in cells or lysates may run through a third protein. Some entries that bind do so weakly or less than the wild type. Blank lines part the entries; values can stand above or below the molecule they belong to.

By UniProt entry, the sequences of proteins in these tests, tags left out.
UniProt P29350: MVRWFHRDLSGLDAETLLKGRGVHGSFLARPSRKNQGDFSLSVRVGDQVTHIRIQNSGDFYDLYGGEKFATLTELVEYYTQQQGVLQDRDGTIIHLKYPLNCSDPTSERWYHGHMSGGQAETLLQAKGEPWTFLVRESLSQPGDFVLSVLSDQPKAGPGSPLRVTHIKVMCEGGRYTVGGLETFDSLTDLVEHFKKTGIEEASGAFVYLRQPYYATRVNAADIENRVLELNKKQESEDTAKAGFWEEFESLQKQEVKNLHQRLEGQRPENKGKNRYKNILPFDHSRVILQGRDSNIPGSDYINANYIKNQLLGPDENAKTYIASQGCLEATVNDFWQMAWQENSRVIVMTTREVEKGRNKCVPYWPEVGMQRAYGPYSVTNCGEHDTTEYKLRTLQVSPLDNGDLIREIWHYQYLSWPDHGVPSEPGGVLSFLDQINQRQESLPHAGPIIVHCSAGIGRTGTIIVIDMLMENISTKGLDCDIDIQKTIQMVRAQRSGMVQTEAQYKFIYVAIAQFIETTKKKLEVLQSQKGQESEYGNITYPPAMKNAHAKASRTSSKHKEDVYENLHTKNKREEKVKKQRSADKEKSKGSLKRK
UniProt P43403: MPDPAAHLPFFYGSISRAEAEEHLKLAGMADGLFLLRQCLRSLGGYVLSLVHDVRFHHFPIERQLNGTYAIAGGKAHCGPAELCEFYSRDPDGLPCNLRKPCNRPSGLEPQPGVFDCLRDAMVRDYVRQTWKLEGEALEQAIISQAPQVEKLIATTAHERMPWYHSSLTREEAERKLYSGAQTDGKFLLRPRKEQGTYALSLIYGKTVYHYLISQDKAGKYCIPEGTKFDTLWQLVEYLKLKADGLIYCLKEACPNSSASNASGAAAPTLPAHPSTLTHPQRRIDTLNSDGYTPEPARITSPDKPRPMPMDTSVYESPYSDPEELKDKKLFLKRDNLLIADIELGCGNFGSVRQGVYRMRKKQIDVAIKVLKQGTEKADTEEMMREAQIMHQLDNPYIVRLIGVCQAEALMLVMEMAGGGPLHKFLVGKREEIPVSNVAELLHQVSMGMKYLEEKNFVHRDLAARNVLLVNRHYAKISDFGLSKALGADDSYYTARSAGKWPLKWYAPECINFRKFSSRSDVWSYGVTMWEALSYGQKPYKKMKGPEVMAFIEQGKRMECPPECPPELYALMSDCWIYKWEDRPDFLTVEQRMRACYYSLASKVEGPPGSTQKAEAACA

Target: T1, CD6 lymphocyte surface receptor (human (endogenous in PBMC)) (UniProt P30203)
T1 sequence: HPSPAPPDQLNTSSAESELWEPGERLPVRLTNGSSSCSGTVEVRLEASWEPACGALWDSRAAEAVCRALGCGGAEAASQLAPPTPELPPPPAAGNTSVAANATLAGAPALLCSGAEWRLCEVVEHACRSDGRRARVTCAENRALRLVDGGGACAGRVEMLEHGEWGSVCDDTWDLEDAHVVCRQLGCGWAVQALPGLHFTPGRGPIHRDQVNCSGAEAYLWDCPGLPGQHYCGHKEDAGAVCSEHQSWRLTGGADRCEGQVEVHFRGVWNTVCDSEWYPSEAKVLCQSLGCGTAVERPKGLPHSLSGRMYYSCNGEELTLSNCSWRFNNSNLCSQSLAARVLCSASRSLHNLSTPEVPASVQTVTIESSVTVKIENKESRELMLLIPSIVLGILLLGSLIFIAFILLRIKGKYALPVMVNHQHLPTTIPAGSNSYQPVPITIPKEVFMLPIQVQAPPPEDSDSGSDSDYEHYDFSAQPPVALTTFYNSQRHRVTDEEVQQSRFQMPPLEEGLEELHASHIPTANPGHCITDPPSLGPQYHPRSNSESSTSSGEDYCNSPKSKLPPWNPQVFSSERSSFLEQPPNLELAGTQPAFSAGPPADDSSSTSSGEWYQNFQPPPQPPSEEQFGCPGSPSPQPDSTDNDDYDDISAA
Experiment: co-IP; human PBMC plated 40 min on Fc-ALCAM-coated plates (10 ug/ml, TSM buffer) with or without Itolizumab (10 ug/ml), its F(ab')2 (equimolar) or Iso Ab, or treated with anti-CD3 (OKT3, 0.5 ng/ml) for 24 h; CD6 immunoprecipitated with Itolizumab or Iso Ab; immunoblot for Zap70, SLP76, phospho and total SHP1 and SHP2

- binding: binds
Molecule: SHP1 (from UniProt P29350 1-595) (enzyme)

- binding: binds
Molecule: ZAP70 kinase (from UniProt P43403 1-619) (enzyme)

- binding: binds
B1: docking protein SLP76 (protein, UniProt Q13094 1-533)
chain: MALRNVPFRSEVLGWDPDSLADYFKKLNYKDCEKAVKKYHIDGARFLNLTENDIQKFPKLRVPILSKLSQEINKNEERRSIFTRKPQVPRFPEETESHEEDNGGWSSFEEDDYESPNDDQDGEDDGDYESPNEEEEAPVEDDADYEPPPSNDEEALQNSILPAKPFPNSNSMYIDRPPSGKTPQQPPVPPQRPMAALPPPPAGRNHSPLPPPQTNHEEPSRSRNHKTAKLPAPSIDRSTKPPLDRSLAPFDREPFTLGKKPPFSDKPSIPAGRSLGEHLPKIQKPPLPPTTERHERSSPLPGKKPPVPKHGWGPDRRENDEDDVHQRPLPQPALLPMSSNTFPSRSTKPSPMNPLPSSHMPGAFSESNSSFPQSASLPPYFSQGPSNRPPIRAEGRNFPLPLPNKPRPPSPAEEENSLNEEWYVSYITRPEAEAALRKINQDGTFLVRDSSKKTTTNPYVLMVLYKDKVYNIQIRYQKESQVYLLGTGLRGKEDFLSVSDIIDYFRKMPLLLIDGKNRGSRYQCTLTHAAGYP
